According to the supplement of paper PMC6078165:

Tested on: Hs578T
Assay: relative JC-1 red fluorescence (viability) vs pre-drug, coculture with fibroblast (fraction); higher = more viable cancer cells
Description: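 JC-1 labelled TNBC cells cocultured 1:1 (1,500 cells each) with CellTrace Violet stained primary or stromal fibroblasts in 384-well plates in FluoroBrite medium, treated with one of 42 anticancer drugs at 0.1, 1, 10 or 100 uM. JC-1 red fluorescence (mitochondrial integrity in cancer cells only) was read by plate reader every 8 h for 72 h. Values are normalised to each well's pre-drug value. The stock of one drug was tenfold lower, so its dose labels may be too high.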

O=C(CCCCCCC(=O)Nc1ccccc1)NO [Vorinostat]
relative JC-1 red fluorescence
Settings	8 h	16 h	24 h	32 h	40 h	48 h	56 h	64 h	72 h
1 µM, coculture fibroblast: WS1	–	–	–	–	–	–	–	–	0.439
10 µM, coculture fibroblast: C12385	0.8418	0.691	0.616	0.528	0.44	0.394	0.359	0.337	0.328
10 µM, coculture fibroblast: H6013	0.8743	0.74	0.667	0.618	0.57	0.557	0.545	0.548	0.541
10 µM, coculture fibroblast: H6019	0.761	0.6597	0.602	0.499	0.456	0.44	0.424	0.428	0.434
10 µM, coculture fibroblast: H6076	0.9019	0.791	0.701	0.654	0.586	0.5566	0.521	0.518	0.514
10 µM, coculture fibroblast: H6231	0.912	0.798	0.656	0.611	0.528	0.491	0.445	0.428	0.407
10 µM, coculture fibroblast: HADF	0.8678	0.71	0.606	0.516	0.459	0.424	0.386	0.371	0.342
10 µM, coculture fibroblast: HCFa	0.814	0.667	0.576	0.496	0.422	0.406	0.395	0.404	0.396
10 µM, coculture fibroblast: HCPF	0.928	0.795	0.736	0.67	0.581	0.528	0.4853	0.44615	0.4214
10 µM, coculture fibroblast: HHSteC	0.8877	0.741	0.668	0.599	0.539	0.514	0.499	0.495	0.485
10 µM, coculture fibroblast: HMF	0.919	0.788	0.69	0.642	0.553	0.506	0.46	0.428	0.406
10 µM, coculture fibroblast: HPFa	0.9237	0.7789	0.6849	0.5997	0.539	0.495	0.465	0.453	0.43
10 µM, coculture fibroblast: HUF	0.871	0.668	0.615	0.504	0.434	0.399	0.371	0.377	0.3749
10 µM, coculture fibroblast: Hs27A	0.8879	0.763	0.67	0.582	0.509	0.492	0.461	0.453	0.427
10 µM, coculture fibroblast: Hs343T	0.8811	0.843	0.751	0.695	0.6033	0.567	0.514	0.481	0.465
10 µM, coculture fibroblast: WS1	0.8117	0.651	0.555	0.435	0.358	0.325	0.287	0.274	0.262
100 µM, coculture fibroblast: C12385	0.833	0.687	0.596	0.501	0.431	0.387	0.353	0.332	0.326
100 µM, coculture fibroblast: H6013	0.89	0.718	0.647	0.582	0.5157	0.477	0.455	0.467	0.456
100 µM, coculture fibroblast: H6019	0.779	0.654	0.601	0.483	0.449	0.444	0.434	0.452	0.454
100 µM, coculture fibroblast: H6076	0.923	0.772	0.7092	0.664	0.581	0.546	0.515	0.51	0.53
100 µM, coculture fibroblast: H6231	0.891	0.78	0.701	0.663	0.586	0.552	0.527	0.517	0.52
100 µM, coculture fibroblast: HADF	0.886	0.771	0.664	0.563	0.48	0.437	0.398	0.385	0.362
100 µM, coculture fibroblast: HCFa	0.858	0.702	0.628	0.526	0.446	0.429	0.41	0.419	0.41
100 µM, coculture fibroblast: HCPF	0.898	0.7951	0.7116	0.659	0.568	0.522	0.505	0.462	0.447
100 µM, coculture fibroblast: HHSteC	0.899	0.722	0.634	0.541	0.471	0.432	0.406	0.397	0.378
100 µM, coculture fibroblast: HMF	0.915	0.779	0.703	0.652	0.557	0.49	0.455	0.43	0.418
100 µM, coculture fibroblast: HPFa	0.897	0.738	0.632	0.542	0.478	0.448	0.416	0.408	0.384
100 µM, coculture fibroblast: HUF	0.8743	0.732	0.663	0.5521	0.503	0.4775	–	0.466	0.473
100 µM, coculture fibroblast: Hs27A	0.9002	0.8249	0.713	0.645	0.566	0.535	0.498	0.492	0.453
100 µM, coculture fibroblast: Hs343T	0.901	0.757	0.683	0.623	0.527	0.47	0.423	0.391	0.39
100 µM, coculture fibroblast: WS1	0.8111	0.666	0.555	0.436	0.358	0.335	0.31	0.301	0.297

relative JC-1 red fluorescence
Settings	8 h	16 h	24 h	32 h	40 h	48 h	56 h	64 h	72 h
10 µM	0.8687	0.754	0.686	0.629	0.55	0.506	0.494	0.476	0.492
100 µM	0.909	0.779	0.687	0.598	0.495	0.446	0.421	0.411	0.422

Values are relative to the signal before dosing, not to a vehicle control; the signal also falls without drug.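 Fibroblast labels name human fibroblasts: mostly primary ones from tissues such as uterus (C12385, HUF), lung (H6013), bone (Hs27A), adrenal (HADF) and skin (WS1), plus mammary HMF and breast cancer-associated Hs343T. The cancer cells are basal-like or mesenchymal-like triple-negative breast cancer lines. The paper calls a changed response a hit when it shifts by more than 3x the replicate standard deviation. The tissue of the other fibroblasts is not given here.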
